# Paper PMC11884789
# Protein sequences, listed by entry. Tags and fused reporters are not part of them.
# UniProt F1N4J1: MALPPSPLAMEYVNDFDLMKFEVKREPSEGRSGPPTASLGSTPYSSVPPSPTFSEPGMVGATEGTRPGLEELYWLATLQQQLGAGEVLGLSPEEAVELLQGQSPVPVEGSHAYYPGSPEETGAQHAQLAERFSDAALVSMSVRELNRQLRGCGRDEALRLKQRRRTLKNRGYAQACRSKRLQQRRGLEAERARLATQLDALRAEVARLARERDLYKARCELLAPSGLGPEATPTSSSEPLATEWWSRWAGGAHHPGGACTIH
# UniProt P54846: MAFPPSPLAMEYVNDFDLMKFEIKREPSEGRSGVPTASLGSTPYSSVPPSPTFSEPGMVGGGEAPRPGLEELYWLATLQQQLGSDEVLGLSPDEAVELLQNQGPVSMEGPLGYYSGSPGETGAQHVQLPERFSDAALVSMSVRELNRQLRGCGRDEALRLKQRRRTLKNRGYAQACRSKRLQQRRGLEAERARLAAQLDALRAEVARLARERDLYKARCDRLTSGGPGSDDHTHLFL
# UniProt P54845: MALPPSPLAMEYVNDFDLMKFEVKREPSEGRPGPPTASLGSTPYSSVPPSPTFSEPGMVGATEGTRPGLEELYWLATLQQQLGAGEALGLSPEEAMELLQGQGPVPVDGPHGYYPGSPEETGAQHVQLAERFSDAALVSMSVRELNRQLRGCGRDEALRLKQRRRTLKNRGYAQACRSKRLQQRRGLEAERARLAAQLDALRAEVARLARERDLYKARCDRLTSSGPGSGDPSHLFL
# UniProt Q9TTF0: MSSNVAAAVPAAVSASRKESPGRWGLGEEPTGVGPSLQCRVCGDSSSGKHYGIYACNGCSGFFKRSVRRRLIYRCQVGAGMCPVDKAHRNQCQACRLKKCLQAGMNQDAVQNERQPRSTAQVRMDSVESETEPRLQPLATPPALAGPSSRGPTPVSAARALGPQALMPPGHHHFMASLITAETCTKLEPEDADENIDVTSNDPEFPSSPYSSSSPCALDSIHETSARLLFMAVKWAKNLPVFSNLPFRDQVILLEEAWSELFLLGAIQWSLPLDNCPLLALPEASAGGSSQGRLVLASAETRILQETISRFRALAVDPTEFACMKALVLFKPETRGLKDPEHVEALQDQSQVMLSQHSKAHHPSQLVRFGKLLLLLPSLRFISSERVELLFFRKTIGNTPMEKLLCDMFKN
# UniProt A0A3Q1M155: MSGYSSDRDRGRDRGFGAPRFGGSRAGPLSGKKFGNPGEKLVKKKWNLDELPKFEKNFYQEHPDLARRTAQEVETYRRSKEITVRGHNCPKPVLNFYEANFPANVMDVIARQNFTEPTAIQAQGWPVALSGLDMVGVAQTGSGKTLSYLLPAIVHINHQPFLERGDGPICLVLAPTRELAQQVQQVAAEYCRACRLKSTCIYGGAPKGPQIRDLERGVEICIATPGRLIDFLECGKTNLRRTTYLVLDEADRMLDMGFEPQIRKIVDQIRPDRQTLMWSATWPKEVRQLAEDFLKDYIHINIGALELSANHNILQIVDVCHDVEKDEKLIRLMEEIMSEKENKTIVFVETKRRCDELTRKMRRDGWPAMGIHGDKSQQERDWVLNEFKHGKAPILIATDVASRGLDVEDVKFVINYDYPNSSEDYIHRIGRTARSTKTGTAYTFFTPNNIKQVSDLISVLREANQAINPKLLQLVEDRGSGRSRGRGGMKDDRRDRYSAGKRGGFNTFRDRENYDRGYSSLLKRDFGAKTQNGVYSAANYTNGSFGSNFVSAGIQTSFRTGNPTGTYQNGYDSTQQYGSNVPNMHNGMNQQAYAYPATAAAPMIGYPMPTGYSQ
# UniProt O70133: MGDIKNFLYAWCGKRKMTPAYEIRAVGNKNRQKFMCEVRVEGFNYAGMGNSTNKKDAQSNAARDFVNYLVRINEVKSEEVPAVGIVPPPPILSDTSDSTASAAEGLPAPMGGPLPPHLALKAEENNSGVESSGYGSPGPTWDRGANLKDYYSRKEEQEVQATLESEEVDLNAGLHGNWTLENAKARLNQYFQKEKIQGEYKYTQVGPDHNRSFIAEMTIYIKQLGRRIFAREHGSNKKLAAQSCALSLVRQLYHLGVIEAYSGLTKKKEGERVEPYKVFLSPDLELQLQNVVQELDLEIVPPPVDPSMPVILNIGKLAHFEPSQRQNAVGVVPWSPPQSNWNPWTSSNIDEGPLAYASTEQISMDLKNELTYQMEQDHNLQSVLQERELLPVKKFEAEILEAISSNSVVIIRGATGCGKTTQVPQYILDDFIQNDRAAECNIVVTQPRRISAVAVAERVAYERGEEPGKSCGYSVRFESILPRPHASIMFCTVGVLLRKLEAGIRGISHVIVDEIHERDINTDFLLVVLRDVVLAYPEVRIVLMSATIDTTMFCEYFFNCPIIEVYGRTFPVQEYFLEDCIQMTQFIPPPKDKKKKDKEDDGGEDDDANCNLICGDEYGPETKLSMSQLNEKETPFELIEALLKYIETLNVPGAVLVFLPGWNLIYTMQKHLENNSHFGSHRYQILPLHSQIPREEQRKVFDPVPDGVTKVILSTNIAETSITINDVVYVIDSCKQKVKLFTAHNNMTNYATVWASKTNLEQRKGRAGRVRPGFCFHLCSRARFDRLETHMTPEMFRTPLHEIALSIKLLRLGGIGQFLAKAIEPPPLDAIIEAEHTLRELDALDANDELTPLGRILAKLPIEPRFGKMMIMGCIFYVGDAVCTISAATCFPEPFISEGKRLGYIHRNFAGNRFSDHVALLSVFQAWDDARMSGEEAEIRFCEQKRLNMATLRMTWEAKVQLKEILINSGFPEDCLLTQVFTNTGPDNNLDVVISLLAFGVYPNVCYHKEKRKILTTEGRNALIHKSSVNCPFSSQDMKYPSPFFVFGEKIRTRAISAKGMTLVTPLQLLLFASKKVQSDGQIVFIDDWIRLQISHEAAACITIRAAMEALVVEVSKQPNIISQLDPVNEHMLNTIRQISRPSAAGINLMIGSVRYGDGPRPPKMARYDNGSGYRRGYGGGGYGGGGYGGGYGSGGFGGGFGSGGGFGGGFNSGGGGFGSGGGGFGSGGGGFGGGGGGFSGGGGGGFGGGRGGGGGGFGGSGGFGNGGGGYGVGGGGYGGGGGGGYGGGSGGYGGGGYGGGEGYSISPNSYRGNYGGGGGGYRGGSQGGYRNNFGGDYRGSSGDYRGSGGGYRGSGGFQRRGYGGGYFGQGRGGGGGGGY
# UniProt Q28141: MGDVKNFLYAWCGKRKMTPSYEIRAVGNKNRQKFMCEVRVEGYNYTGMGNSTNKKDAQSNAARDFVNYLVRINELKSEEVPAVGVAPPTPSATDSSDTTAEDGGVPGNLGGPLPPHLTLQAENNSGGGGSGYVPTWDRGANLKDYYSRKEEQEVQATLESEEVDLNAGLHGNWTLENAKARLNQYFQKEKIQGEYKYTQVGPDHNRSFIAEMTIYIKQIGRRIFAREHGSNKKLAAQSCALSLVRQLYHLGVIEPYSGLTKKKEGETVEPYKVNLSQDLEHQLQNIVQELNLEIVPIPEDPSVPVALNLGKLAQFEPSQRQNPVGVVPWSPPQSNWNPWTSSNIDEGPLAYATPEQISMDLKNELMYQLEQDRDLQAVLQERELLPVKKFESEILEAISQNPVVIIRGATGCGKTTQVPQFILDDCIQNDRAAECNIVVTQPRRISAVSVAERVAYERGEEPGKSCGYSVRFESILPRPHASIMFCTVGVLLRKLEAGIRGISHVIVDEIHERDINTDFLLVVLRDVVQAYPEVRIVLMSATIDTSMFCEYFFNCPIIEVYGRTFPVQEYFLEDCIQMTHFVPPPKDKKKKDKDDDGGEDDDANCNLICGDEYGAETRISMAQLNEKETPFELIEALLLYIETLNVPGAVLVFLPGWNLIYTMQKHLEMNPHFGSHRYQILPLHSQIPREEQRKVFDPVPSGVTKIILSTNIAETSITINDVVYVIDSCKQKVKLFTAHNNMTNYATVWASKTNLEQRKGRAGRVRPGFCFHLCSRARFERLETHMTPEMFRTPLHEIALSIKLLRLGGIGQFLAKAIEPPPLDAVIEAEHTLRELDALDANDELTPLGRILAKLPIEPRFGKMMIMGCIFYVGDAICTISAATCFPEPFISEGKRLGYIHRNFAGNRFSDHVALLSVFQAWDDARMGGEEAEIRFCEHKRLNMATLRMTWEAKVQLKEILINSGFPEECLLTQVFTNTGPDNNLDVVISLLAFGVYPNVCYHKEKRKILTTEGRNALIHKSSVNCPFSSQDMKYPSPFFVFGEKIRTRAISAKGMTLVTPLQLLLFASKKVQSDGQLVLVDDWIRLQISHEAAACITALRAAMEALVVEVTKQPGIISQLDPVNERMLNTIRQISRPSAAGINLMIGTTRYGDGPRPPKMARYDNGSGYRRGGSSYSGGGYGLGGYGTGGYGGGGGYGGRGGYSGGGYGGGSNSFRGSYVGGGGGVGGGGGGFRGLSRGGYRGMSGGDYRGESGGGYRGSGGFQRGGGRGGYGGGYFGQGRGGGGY
# UniProt Q9XSK0: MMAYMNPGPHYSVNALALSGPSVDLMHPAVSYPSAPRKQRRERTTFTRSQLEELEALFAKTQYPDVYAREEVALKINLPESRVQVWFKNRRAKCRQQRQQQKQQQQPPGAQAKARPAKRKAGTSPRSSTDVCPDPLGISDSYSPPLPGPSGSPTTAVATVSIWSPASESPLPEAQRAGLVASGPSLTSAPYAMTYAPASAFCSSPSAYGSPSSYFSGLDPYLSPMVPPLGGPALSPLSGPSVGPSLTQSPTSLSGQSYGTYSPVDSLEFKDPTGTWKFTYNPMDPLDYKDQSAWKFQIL
# How the values were obtained:
# [1] = biological target: NRL, endogenous in bovine retina (bovine (endogenous in bovine retina)) (UniProt F1N4J1); experiment: affinity purification with mass spectrometry; Sephacryl S-300 peaks of 650 and 450 kDa from bovine retinal nuclear extract immunoprecipitated with NRL antibody/protein A beads overnight at 4°C; LC-MS-MS; IgG control
# [2] = biological target: NRL, endogenous in mouse retina (mouse (endogenous in mouse retina)) (UniProt P54846); experiment: affinity purification with mass spectrometry; NRL co-IP from mouse retina nuclear extracts; LC-MS-MS; IgG control
# [3] = biological target: human NRL fused to GST (human) (UniProt P54845); experiment: affinity purification with mass spectrometry; GST-NRL on Glutathione Sepharose beads incubated 2 hr at 4°C with nuclear fraction from bovine retina; LC-MS-MS; GST only as control; n = 3; only the target purified
Molecule,binding [1],binding [2],binding [3]
"NR2E3, bovine retina (from UniProt Q9TTF0 1-411)",binds,–,–
"DDX5, bovine retina (from UniProt A0A3Q1M155 1-614)",binds,–,–
"DHX9, mouse retina (from UniProt O70133 1-1380)",–,binds,–
"NonO/p54^nrb, bovine retina (protein, UniProt Q2KJ42 1-470) MQSNKTFNLEKQNHTPRKHHQHHHQQHHQQQQQQPPPPPMPANGQQASSQNEGLTIDLKNFRKPGEKTFTQRSRLFVGNLPPDITEEEMRKLFEKYGKAGEVFIHKDKGFGFIRLETRTLAEIAKVELDNMPLRGKQLRVRFACHSASLTVRNLPQYVSNELLEEAFSVFGQVERAVVIVDDRGRPSGKGIVEFSGKPAARKALDRCSEGSFLLTTFPRPVTVEPMDQLDDEEGLPEKLVIKNQQFHKEREQPPRFAQPGSFEYEYAMRWKALIEMEKQQQDQVDRNIKEAREKLEMEMEAARHEHQVMLMRQDLMRRQEELRRMEELHNQEVQKRKQLELRQEEERRRREEEMRRQQEEMMRRQQEGFKGTFPDAREQEIRMGQMAMGGAMGINNRGAMPPAPVPAGTPAPPGPATMMPDGTLGLTPPTTERFGQAATMEGIGAIGGTPPAFNRAAPGAEFAPNKRRRY",binds,–,–

# Now from value to molecule:
binding [1],binding [2],binding [3],Molecule
binds,–,binds,"DHX9, bovine retina (from UniProt Q28141 1-1287)"
binds,–,–,"CRX, bovine retina (from UniProt Q9XSK0 1-299)"

# No constants are given. Whether binding was seen depends on the method and setting. In cells and extracts the contact can be indirect. A yes stands for co-enrichment or nearness to the bait. Other partners may have been found.
